# Earlier results as cited in US20060234297A1, “Screening method” (priority 2003, published 2006).
# For at least one compound, name, drawing or mass did not settle the structure.
# Assays:
# [1] = tested on: human macrophages stimulated with phorbol ester (TPA)
# [2] = tested on: mouse macrophages stimulated with phorbol ester (TPA)
smiles,measurement,setting,value
CCC(C)(C)C(=O)O[C@H]1C[C@@H](C)C=C2C=C[C@H](C)[C@H](CC[C@@H]3C[C@@H](O)CC(=O)O3)[C@H]21 [simvastatin],MMP-9 secretion and production,[1],inhibited MMP-9 secretion and production
same,MMP-9 secretion and production,[2],inhibited MMP-9 secretion and production
